Results are given in words; binding and its absence hold for the method and conditions named. In cells and extracts the contact can be indirect. Some binding calls cover weakened binding; strength is not graded here.

Amino acid sequences for entries named in this document (tags omitted).
UniProt Q9QXL1: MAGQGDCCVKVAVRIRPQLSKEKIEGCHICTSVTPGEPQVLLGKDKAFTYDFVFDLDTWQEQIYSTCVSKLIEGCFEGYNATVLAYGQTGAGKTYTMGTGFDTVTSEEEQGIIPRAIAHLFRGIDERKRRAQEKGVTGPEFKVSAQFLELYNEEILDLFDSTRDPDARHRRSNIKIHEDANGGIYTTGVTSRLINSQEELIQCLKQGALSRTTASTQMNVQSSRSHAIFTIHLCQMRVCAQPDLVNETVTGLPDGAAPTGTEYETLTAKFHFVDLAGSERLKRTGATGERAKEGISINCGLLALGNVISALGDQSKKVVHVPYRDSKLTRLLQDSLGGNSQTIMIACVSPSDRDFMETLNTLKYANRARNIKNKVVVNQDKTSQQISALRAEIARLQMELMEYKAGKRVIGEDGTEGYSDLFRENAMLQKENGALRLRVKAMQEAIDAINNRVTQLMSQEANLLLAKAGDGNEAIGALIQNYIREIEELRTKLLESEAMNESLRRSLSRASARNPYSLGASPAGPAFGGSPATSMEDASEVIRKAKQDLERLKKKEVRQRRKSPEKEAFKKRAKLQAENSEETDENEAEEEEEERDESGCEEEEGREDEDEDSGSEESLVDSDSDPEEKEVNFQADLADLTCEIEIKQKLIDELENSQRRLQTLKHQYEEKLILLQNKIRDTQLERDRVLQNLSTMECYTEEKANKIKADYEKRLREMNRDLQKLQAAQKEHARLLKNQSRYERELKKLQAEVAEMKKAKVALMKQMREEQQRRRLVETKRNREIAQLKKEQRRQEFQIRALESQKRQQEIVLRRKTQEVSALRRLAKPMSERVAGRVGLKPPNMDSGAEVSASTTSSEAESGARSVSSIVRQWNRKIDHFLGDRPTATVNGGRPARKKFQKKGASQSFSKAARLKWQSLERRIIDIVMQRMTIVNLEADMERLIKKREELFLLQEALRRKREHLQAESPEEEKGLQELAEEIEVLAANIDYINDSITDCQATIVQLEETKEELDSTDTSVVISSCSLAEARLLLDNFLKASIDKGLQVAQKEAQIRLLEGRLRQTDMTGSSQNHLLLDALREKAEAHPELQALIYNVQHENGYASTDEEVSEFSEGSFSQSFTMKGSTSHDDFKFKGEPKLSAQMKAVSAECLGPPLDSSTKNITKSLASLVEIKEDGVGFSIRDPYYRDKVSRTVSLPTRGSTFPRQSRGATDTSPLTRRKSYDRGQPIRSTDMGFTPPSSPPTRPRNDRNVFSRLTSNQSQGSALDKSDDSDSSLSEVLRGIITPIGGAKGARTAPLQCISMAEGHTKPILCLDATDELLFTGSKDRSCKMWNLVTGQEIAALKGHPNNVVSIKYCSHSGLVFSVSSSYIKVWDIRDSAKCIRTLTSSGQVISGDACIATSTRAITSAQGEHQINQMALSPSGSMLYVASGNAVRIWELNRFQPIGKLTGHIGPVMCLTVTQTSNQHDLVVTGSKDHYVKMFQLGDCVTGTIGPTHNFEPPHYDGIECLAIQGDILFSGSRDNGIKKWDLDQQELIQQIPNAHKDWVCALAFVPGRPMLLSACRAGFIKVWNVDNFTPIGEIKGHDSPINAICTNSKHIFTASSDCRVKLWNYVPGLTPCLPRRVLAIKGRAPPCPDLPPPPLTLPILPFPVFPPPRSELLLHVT
UniProt Q9QXL2: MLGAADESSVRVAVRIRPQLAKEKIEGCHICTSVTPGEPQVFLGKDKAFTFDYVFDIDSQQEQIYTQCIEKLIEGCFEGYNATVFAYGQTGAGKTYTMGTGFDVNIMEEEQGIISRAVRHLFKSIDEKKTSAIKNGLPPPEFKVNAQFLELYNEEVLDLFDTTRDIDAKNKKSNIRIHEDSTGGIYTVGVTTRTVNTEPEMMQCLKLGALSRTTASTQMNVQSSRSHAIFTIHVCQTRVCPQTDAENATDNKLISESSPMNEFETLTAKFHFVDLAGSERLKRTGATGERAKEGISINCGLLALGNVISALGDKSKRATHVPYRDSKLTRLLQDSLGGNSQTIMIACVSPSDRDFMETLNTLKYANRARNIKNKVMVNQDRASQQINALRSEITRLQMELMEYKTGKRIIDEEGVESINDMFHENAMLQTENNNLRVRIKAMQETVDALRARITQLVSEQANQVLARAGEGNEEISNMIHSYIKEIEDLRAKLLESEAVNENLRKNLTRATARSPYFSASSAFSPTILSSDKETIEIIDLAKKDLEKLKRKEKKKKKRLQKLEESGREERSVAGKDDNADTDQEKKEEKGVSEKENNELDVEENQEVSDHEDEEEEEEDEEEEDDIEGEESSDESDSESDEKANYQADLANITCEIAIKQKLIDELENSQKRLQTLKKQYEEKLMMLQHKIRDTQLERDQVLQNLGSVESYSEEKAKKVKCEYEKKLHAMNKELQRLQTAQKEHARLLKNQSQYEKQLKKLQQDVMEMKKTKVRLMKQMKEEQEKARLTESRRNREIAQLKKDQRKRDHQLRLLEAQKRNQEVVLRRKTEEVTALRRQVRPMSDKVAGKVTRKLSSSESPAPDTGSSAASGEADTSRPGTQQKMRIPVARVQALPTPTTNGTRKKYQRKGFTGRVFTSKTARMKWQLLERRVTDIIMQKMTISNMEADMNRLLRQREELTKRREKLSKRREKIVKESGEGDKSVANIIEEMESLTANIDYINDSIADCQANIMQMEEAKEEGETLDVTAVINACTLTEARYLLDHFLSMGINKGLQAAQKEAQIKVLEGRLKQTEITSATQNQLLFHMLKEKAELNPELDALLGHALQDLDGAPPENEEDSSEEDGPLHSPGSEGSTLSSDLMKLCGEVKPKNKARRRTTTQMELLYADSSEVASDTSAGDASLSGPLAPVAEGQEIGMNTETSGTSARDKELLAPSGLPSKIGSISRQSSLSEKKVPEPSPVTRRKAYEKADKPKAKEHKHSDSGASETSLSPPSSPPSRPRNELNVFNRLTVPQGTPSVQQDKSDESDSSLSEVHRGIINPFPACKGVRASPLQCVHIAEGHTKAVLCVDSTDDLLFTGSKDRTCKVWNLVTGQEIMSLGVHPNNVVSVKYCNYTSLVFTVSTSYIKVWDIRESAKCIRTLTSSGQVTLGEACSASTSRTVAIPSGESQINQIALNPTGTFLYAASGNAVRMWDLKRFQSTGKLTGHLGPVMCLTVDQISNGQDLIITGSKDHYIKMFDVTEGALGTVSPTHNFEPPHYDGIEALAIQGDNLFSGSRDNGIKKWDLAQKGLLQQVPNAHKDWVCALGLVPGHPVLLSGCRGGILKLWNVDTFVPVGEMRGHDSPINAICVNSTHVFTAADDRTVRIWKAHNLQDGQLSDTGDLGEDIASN

Experiment [1] deals with T1, guanylate kinase-associated protein (GKAP) (mouse (endogenous in brain lysate)) (UniProt Q9D415).
T1 sequence: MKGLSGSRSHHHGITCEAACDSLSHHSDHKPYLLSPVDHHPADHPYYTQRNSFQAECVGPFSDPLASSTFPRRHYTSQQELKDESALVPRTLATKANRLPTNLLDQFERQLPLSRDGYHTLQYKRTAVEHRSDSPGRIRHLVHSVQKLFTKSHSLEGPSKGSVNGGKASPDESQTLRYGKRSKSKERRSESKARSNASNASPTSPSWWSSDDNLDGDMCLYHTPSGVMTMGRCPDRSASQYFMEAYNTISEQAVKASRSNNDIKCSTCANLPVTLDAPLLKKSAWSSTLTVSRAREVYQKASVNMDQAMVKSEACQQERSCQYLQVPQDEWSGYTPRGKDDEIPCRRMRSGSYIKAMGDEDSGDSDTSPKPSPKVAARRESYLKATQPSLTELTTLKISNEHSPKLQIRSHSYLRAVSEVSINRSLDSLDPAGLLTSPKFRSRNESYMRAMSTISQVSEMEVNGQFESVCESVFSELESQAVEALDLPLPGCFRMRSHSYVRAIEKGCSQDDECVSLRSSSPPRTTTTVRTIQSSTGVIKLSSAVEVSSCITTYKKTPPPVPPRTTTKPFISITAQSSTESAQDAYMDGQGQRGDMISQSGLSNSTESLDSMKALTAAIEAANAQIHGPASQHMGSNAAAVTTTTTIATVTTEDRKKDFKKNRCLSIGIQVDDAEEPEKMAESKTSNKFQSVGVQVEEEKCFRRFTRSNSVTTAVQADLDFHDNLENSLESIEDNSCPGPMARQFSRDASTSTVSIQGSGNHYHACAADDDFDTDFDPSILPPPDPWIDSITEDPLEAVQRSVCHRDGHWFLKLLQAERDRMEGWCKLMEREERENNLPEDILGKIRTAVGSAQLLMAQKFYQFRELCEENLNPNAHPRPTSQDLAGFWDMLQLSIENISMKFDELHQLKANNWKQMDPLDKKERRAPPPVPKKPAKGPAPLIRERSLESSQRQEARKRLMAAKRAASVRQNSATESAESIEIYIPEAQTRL
The experiment in a line: co-IP.

Experiment [2] addresses kinesin motor protein KIF21B (mouse (endogenous in hippocampal and brain lysate)) (UniProt Q9QXL1). The experiment in a line: co-IP.

For “kinesin motor KIF21A (from UniProt Q9QXL2 1-1672)”, the binding entry in experiment [1] is reported as “no binding”.
The same measure, in the same setting: next, “kinesin motor protein KIF21B (from UniProt Q9QXL1 1-1668)”: “binds”.

B1: guanylate kinase-associated protein (GKAP) (protein, UniProt Q9D415 1-992)
chain: T1 sequence
Consider B1, for which the binding result in experiment [2] is “binds”.

B2: Homer-1 (protein, UniProt Q9Z2Y3 1-366)
chain: MGEQPIFSTRAHVFQIDPNTKKNWVPTSKHAVTVSYFYDSTRNVYRIISLDGSKAIINSTITPNMTFTKTSQKFGQWADSRANTVYGLGFSSEHHLSKFAEKFQEFKEAARLAKEKSQEKMELTSTPSQESAGGDLQSPLTPESINGTDDERTPDVTQNSEPRAEPTQNALPFPHSAGDRTQALSHASSAISKHWEAELATLKGNNAKLTAALLESTANVKQWKQQLAAYQEEAERLHKRVTELECVSSQANAVHSHKTELNQTVQELEETLKVKEEEIERLKQEIDNARELQEQRDSLTQKLQEVEIRNKDLEGQLSDLEQRLEKSQNEQEAFRSNLKTLLEILDGKIFELTELRDNLAKLLECS
Consider B2, for which the binding result in experiment [1] is recorded as “binds”.

Values taken from paper doi:10.1101/2022.05.04.490582.
